Structures can show the parent of a compound that is named as a salt. The list shows a part of the results. Hit calls seldom repeat between salt and free forms of one compound.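 In K562 cells expressing nanoluciferase-fused kinases, luminescence was recorded at 4 h intervals between 2 and 18 h, normalized as percent of control with DMSO at 100% and a positive control at 0%. A significant (2 sigma) signal drop marks a time point as decreased. The authors' rule for a hit is not shown and takes in more than the number of time points.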
Assays:
Test in all cases: kinase-Nluc reporter destabilization hit call (1 = scored as downregulated) (binary); higher = compound decreases kinase abundance
Conditions in all cases: K562; 2-18 h
RET = RET (UniProt P07949)
[1] = molecular target: RET_M918T (clone: RET_mut) (UniProt P07949)
RIOK1 = RIOK1 (UniProt Q9BRS2)
RIPK1 = RIPK1 (UniProt Q13546)
RIPK2 = RIPK2 (UniProt O43353)
ROR2 = ROR2 (UniProt Q01974)
RPS6KA1 = RPS6KA1 (UniProt Q15418)
SPHK1 = SPHK1 (UniProt Q9NYA1)
SRC = SRC (UniProt P12931)
STK24 = STK24 (UniProt Q9Y6E0)

Chains of the proteins cited; added tags and fusions are not shown. Lines headed by an entry give the natural chain unless they say otherwise; changes in a name come on top.
UniProt P07949, whole entry, looked up: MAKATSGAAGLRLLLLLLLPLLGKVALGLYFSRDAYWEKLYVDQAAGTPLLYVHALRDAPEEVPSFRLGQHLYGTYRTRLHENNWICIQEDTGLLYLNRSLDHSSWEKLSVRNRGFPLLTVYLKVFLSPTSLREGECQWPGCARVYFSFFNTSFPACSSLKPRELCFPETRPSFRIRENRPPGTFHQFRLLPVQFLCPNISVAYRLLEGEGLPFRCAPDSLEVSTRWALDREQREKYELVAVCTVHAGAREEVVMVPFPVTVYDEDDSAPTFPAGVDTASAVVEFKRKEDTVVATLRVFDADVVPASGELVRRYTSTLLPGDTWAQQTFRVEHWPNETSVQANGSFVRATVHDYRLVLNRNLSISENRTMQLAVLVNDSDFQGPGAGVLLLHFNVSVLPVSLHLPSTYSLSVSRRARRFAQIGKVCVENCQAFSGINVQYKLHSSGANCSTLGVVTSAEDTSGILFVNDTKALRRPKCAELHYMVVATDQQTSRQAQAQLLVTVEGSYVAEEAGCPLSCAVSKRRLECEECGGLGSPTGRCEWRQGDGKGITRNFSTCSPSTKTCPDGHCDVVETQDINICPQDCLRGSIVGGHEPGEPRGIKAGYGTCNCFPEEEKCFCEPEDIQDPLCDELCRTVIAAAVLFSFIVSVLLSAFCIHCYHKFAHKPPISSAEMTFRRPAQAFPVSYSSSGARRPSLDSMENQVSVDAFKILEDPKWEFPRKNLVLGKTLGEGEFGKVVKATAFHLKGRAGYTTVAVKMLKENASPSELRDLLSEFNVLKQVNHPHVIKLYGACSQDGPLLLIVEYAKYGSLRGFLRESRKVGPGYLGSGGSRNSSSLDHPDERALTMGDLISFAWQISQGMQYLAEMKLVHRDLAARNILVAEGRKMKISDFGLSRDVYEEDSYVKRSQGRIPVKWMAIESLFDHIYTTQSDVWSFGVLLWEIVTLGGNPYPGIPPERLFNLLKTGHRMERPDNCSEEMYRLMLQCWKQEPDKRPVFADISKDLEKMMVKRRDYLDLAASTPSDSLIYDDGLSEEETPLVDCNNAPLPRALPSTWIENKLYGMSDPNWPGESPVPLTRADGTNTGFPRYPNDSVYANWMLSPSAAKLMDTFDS
UniProt P07949, whole entry M918T, looked up: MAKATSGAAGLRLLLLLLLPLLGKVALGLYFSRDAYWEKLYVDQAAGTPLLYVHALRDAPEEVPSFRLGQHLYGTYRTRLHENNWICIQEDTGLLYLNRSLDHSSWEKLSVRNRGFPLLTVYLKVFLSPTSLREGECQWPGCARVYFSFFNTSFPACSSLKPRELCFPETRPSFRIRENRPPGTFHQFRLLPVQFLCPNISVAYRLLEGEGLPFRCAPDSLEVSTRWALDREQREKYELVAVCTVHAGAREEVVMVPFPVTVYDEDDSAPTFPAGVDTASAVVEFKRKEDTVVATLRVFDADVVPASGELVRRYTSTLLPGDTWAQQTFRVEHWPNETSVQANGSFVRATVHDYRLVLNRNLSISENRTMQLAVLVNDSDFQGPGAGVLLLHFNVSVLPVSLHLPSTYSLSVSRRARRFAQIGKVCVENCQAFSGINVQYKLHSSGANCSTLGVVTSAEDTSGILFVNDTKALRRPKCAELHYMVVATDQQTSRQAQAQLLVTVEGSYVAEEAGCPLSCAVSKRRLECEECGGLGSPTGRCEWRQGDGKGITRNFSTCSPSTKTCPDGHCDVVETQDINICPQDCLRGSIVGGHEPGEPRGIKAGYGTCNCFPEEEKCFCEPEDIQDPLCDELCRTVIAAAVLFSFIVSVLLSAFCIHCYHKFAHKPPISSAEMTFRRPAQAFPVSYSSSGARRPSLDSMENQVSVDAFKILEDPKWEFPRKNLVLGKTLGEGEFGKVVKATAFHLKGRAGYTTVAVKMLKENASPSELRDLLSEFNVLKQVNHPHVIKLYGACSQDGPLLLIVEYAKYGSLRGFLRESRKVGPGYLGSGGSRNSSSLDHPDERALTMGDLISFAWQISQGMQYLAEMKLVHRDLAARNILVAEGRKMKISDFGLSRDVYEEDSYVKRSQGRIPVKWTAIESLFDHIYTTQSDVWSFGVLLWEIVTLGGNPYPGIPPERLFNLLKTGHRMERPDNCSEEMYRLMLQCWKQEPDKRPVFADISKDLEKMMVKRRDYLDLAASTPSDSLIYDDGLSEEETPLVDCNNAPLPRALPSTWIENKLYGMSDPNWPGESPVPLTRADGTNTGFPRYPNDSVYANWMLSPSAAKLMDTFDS
UniProt Q9BRS2: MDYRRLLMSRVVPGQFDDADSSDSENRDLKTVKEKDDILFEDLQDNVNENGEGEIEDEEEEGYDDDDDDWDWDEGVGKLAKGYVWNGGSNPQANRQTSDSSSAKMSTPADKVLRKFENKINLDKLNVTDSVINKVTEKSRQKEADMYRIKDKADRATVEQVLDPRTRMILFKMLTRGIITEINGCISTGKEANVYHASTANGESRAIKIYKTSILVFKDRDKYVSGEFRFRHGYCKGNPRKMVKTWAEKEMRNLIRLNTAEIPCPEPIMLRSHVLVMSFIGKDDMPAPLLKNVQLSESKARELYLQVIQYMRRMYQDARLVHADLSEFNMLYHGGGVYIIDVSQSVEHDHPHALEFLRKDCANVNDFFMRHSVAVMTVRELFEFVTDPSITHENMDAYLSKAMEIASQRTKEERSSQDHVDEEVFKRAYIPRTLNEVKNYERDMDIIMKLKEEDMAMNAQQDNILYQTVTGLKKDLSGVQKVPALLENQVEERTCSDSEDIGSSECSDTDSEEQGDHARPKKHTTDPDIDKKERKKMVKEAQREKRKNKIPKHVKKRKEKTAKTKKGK
UniProt Q13546: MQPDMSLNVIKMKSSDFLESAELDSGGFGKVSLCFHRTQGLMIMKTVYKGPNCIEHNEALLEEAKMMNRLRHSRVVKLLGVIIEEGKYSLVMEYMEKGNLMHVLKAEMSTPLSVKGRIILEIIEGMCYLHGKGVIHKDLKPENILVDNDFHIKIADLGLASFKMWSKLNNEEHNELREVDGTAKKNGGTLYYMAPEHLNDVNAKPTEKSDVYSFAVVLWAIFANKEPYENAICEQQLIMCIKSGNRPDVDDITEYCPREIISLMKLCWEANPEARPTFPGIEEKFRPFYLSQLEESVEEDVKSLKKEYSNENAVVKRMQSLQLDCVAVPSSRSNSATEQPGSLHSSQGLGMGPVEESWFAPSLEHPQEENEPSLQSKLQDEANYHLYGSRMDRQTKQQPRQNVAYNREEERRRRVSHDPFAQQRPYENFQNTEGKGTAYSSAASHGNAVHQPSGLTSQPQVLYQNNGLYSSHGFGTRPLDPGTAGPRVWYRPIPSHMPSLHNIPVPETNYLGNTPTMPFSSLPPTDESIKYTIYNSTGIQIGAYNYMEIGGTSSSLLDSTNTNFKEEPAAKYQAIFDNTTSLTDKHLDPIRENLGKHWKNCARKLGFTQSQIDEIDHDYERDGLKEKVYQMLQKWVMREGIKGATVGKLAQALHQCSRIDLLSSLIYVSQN
UniProt Q01974, whole entry: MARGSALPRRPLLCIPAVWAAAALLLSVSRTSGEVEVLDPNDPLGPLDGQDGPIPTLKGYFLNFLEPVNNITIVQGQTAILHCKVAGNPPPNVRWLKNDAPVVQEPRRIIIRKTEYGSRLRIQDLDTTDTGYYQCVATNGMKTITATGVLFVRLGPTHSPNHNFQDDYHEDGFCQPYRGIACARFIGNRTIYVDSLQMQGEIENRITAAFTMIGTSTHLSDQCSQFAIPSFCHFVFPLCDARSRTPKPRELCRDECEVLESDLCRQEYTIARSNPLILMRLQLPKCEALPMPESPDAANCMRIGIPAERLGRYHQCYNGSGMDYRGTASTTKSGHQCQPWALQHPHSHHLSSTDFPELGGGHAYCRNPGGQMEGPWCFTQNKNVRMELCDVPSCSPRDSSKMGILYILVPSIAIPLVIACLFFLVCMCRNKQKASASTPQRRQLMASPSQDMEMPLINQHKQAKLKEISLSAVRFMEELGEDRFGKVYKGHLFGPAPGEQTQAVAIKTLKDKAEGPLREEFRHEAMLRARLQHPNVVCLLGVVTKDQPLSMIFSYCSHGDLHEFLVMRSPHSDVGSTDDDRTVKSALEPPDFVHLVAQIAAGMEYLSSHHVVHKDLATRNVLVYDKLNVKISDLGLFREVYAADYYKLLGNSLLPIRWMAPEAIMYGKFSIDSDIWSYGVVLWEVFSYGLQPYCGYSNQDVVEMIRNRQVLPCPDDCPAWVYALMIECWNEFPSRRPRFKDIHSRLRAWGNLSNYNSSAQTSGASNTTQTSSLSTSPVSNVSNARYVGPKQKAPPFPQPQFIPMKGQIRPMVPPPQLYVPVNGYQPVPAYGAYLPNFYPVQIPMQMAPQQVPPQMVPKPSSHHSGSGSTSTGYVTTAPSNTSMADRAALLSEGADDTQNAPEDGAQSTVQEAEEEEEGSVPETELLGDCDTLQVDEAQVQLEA
UniProt Q15418, whole entry: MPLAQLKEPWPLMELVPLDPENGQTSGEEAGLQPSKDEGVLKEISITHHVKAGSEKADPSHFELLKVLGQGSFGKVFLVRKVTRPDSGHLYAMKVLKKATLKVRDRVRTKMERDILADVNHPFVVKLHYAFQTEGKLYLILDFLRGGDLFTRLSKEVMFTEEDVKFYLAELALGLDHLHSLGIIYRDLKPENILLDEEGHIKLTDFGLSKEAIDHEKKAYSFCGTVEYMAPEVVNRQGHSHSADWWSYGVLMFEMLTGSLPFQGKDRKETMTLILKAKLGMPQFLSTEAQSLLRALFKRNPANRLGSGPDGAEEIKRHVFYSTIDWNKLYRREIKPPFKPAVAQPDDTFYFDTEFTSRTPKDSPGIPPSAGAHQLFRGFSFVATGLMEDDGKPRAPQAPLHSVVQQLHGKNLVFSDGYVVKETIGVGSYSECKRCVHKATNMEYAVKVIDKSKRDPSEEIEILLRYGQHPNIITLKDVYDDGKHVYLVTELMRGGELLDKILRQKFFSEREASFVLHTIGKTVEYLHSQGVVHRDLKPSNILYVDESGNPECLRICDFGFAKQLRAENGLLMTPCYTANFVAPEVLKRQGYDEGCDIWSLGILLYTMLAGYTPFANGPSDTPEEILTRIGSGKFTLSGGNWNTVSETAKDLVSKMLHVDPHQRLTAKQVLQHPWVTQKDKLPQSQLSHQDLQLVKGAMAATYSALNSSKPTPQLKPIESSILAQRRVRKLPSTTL
UniProt Q9NYA1, whole entry: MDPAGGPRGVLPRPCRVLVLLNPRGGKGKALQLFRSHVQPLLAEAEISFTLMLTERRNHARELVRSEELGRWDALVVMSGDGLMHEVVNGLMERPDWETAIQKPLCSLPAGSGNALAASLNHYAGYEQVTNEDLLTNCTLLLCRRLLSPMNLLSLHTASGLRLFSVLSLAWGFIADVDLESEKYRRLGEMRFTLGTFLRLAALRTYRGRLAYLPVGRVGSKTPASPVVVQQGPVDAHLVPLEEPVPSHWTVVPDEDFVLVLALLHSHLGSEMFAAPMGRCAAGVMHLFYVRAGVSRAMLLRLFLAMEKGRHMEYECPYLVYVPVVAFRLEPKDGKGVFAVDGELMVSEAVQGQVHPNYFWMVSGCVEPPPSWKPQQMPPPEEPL
UniProt Q9Y6E0: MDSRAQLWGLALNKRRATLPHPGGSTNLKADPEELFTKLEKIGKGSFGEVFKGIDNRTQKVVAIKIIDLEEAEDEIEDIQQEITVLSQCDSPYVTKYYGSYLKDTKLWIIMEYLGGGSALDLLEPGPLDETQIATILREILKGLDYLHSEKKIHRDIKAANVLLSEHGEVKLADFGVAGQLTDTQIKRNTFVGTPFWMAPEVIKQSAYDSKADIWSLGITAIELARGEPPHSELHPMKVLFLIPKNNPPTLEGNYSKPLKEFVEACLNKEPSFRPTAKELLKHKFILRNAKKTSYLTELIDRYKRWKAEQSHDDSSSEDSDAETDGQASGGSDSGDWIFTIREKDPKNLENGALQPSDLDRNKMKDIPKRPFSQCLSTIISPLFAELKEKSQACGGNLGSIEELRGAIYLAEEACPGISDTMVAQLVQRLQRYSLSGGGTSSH

Measured: kinase-Nluc reporter destabilization hit call

C=CC(=O)N[C@H]1CCOC[C@H]1Nc1ncc2cc(-c3c(Cl)c(OC)cc(OC)c3Cl)ccc2n1 [Fisogatinib] (10 µM)
inactive: RET 0 | [1] 0 | RIOK1 = 0 | RIPK1 = 0 | RIPK2 = 0 | ROR2 = 0 | RPS6KA1 = 0 | SPHK1 = 0 | SRC 0 | STK24 = 0

C[C@@H]1O[C@@H](O[C@H]2[C@H](OC(=O)[C@]34CCC(C)(C)C[C@H]3C3=CC[C@@H]5[C@@]6(C)C[C@H](O)[C@H](O[C@@H]7O[C@H](CO)[C@@H](O)[C@H](O)[C@H]7O)C(CO)(CO)[C@@H]6CC[C@@]5(C)[C@]3(C)C[C@H]4O)OC[C@H](O)[C@@H]2O)[C@H](O)[C@H](O)[C@H]1O[C@@H]1OC[C@@H](O)[C@H](O[C@@H]2OC[C@](O)(CO)[C@H]2O)[C@H]1O [Platycodin D] (10 µM)
inactive: RET 0 | [1] 0 | RIOK1 = 0 | RIPK1 = 0 | RIPK2 = 0 | ROR2 = 0 | RPS6KA1 = 0 | SPHK1 = 0 | SRC 0 | STK24 = 0

O=C(CCc1ccc2n1[B-](F)(F)[N+]1=C(c3ccc[nH]3)C=CC1=C2)ON1C(=O)CCC1=O [Py-BODIPY-NHS ester] (2.5 µM)
inactive: RET 0 | [1] 0 | RIOK1 = 0 | RIPK1 = 0 | RIPK2 = 0 | ROR2 = 0 | RPS6KA1 = 0 | SPHK1 = 0 | SRC 0 | STK24 = 0

CCC(=O)N1CC[C@H](Nc2ncnc3c2CN(c2cnc(OC)c(C(F)(F)F)c2)CC3)C1 [Leniolisib] (10 µM)
inactive: RET 0 | [1] 0 | RIOK1 = 0 | RIPK1 = 0 | RIPK2 = 0 | ROR2 = 0 | RPS6KA1 = 0 | SPHK1 = 0 | SRC 0 | STK24 = 0

O=C(c1ccc(NS(=O)(=O)c2cccc3cccnc23)cc1)N1CCN(CC2CC2)CC1 [Mitapivat] (10 µM)
inactive: RET 0 | [1] 0 | RIOK1 = 0 | RIPK1 = 0 | RIPK2 = 0 | ROR2 = 0 | RPS6KA1 = 0 | SPHK1 = 0 | SRC 0 | STK24 = 0

Oc1ccc2ccccc2c1SSc1c(O)ccc2ccccc12 (10 µM)
inactive: RET 0 | [1] 0 | RIOK1 = 0 | RIPK1 = 0 | RIPK2 = 0 | ROR2 = 0 | RPS6KA1 = 0 | SPHK1 = 0 | SRC 0 | STK24 = 0

CCn1c2ccccc2c2cc(Nc3ccnc(NCCCN4CCOCC4)n3)ccc21 (2.5 µM)
inactive: RET 0 | [1] 0 | RIOK1 = 0 | RIPK1 = 0 | RIPK2 = 0 | ROR2 = 0 | RPS6KA1 = 0 | SPHK1 = 0 | SRC 0 | STK24 = 0

CNC[C@@H](NC(=O)c1ccc(-c2nc([C@H]3CC[C@H](O)[C@@H](F)C3)cnc2N)cc1F)c1cc(F)cc(Br)c1 [Rineterkib] (10 µM)
inactive: RET 0 | [1] 0 | RIOK1 = 0 | RIPK1 = 0 | RIPK2 = 0 | ROR2 = 0 | RPS6KA1 = 0 | SPHK1 = 0 | SRC 0 | STK24 = 0

Nc1nc2c(ncn2COCCO)c(=O)[nH]1 [Acyclovir] (10 µM)
inactive: RET 0 | [1] 0 | RIOK1 = 0 | RIPK1 = 0 | RIPK2 = 0 | ROR2 = 0 | RPS6KA1 = 0 | SPHK1 = 0 | SRC 0 | STK24 = 0

COc1cccc2cc(-c3nc([C@H]4CC[C@H](C(=O)O)CC4)n4ncnc(N)c34)[nH]c12 (2.5 µM)
inactive: RET 0 | [1] 0 | RIOK1 = 0 | RIPK1 = 0 | RIPK2 = 0 | ROR2 = 0 | RPS6KA1 = 0 | SPHK1 = 0 | SRC 0 | STK24 = 0

CCS(=O)(=O)c1ccc(Oc2cc(O[C@@H](C)CO)cc(C(=O)Nc3ccn(C)n3)c2)cn1 (10 µM)
inactive: RET 0 | [1] 0 | RIOK1 = 0 | RIPK1 = 0 | RIPK2 = 0 | ROR2 = 0 | RPS6KA1 = 0 | SPHK1 = 0 | SRC 0 | STK24 = 0

CC(C)c1cnn2c(NCc3ccccc3)cc(NCCCCCCN)nc12 [BS-181 (hydrochloride)] (10 µM)
inactive: RET 0 | [1] 0 | RIOK1 = 0 | RIPK1 = 0 | RIPK2 = 0 | ROR2 = 0 | RPS6KA1 = 0 | SPHK1 = 0 | SRC 0 | STK24 = 0

O=C1c2cccc(O)c2C(=O)c2c(O)cccc21 [Danthron] (10 µM)
inactive: RET 0 | [1] 0 | RIOK1 = 0 | RIPK1 = 0 | RIPK2 = 0 | ROR2 = 0 | RPS6KA1 = 0 | SPHK1 = 0 | SRC 0 | STK24 = 0

COC(=O)/C=C/c1ccc(O)c(OC)c1 [Ferulic acid methyl ester] (10 µM)
inactive: RET 0 | [1] 0 | RIOK1 = 0 | RIPK1 = 0 | RIPK2 = 0 | ROR2 = 0 | RPS6KA1 = 0 | SPHK1 = 0 | SRC 0 | STK24 = 0

Cc1ccc(-c2csc(Cn3nc(CC4OCCCO4)c4ccccc4c3=O)n2)cc1 (10 µM)
inactive: RET 0 | [1] 0 | RIOK1 = 0 | RIPK1 = 0 | RIPK2 = 0 | ROR2 = 0 | RPS6KA1 = 0 | SPHK1 = 0 | SRC 0 | STK24 = 0

NC(=O)c1nc(-c2c(F)cccc2Cl)oc1Nc1ccc(C(=O)N2CCOCC2)cc1 (10 µM)
inactive: RET 0 | [1] 0 | RIOK1 = 0 | RIPK1 = 0 | RIPK2 = 0 | ROR2 = 0 | RPS6KA1 = 0 | SPHK1 = 0 | SRC 0 | STK24 = 0

C[C@H](CC[C@@H](O)C(C)(C)O)[C@H]1CC[C@@]2(C)[C@@H]3CC=C4[C@@H](CC[C@H](O)C4(C)C)[C@]3(C)[C@H](O)C[C@]12C [Mogrol] (10 µM)
inactive: RET 0 | [1] 0 | RIOK1 = 0 | RIPK1 = 0 | RIPK2 = 0 | ROR2 = 0 | RPS6KA1 = 0 | SPHK1 = 0 | SRC 0 | STK24 = 0

Nc1n[nH]c(N)c1N=Nc1ccc(O)cc1 (10 µM)
inactive: RET 0 | [1] 0 | RIOK1 = 0 | RIPK1 = 0 | RIPK2 = 0 | ROR2 = 0 | RPS6KA1 = 0 | SPHK1 = 0 | SRC 0 | STK24 = 0

CNS(=O)(=O)Nc1nccc(Cc2c(C)c3ccc(Oc4ncccn4)cc3oc2=O)c1F (10 µM)
inactive: RET 0 | [1] 0 | RIOK1 = 0 | RIPK1 = 0 | RIPK2 = 0 | ROR2 = 0 | RPS6KA1 = 0 | SPHK1 = 0 | SRC 0 | STK24 = 0

CNS(=O)(=O)C[C@H]1CC[C@H](N(C)c2[nH]cnc3nccc2-3)CC1 [Oclacitinib (maleate)] (10 µM)
inactive: RET 0 | [1] 0 | RIOK1 = 0 | RIPK1 = 0 | RIPK2 = 0 | ROR2 = 0 | RPS6KA1 = 0 | SPHK1 = 0 | SRC 0 | STK24 = 0

CCN1C(C)(C)CC(Oc2ccc(C(=O)Nc3ccc(NC(=O)Nc4cc(C(C)(C)C)on4)cc3)nc2)CC1(C)C (10 µM)
inactive: RET 0 | [1] 0 | RIOK1 = 0 | RIPK1 = 0 | RIPK2 = 0 | ROR2 = 0 | RPS6KA1 = 0 | SPHK1 = 0 | SRC 0 | STK24 = 0

CCn1c(-c2nonc2N)nc2c(C#CCO)ncc(OCCCN)c21 [AKT Kinase Inhibitor] (10 µM)
inactive: RET 0 | [1] 0 | RIOK1 = 0 | RIPK1 = 0 | RIPK2 = 0 | ROR2 = 0 | RPS6KA1 = 0 | SPHK1 = 0 | SRC 0 | STK24 = 0

CC(C)n1nc(C#Cc2ccccc2)c2c(N)ncnc21 (10 µM)
inactive: RET 0 | [1] 0 | RIOK1 = 0 | RIPK1 = 0 | RIPK2 = 0 | ROR2 = 0 | RPS6KA1 = 0 | SPHK1 = 0 | SRC 0 | STK24 = 0

COc1cc(-c2cnc(N)c(-c3ccc(NC(=O)c4cn(CC5CCOCC5)cc(-c5ccc(C)cn5)c4=O)cc3F)c2)ccc1OC[C@H]1COCCO1 [DS-1205b (free base)] (10 µM)
inactive: RET 0 | [1] 0 | RIOK1 = 0 | RIPK1 = 0 | RIPK2 = 0 | ROR2 = 0 | RPS6KA1 = 0 | SPHK1 = 0 | SRC 0 | STK24 = 0

CCc1ccc(NC(=O)Nc2ccccc2)cc1 (10 µM)
inactive: RET 0 | [1] 0 | RIOK1 = 0 | RIPK1 = 0 | RIPK2 = 0 | ROR2 = 0 | RPS6KA1 = 0 | SPHK1 = 0 | SRC 0 | STK24 = 0

C[C@@H]1CN(CC(=O)Nc2ccc3c(c2)Cc2cccc(-c4cc(=O)cc(N5CCOCC5)o4)c2S3)C[C@H](C)O1 (2.5 µM)
inactive: RET 0 | [1] 0 | RIOK1 = 0 | RIPK1 = 0 | RIPK2 = 0 | ROR2 = 0 | RPS6KA1 = 0 | SPHK1 = 0 | SRC 0 | STK24 = 0

N#C/C(=C\c1ccc[nH]1)c1ccc(Cl)c(Cl)c1 (2.5 µM)
inactive: RET 0 | [1] 0 | RIOK1 = 0 | RIPK1 = 0 | RIPK2 = 0 | ROR2 = 0 | RPS6KA1 = 0 | SPHK1 = 0 | SRC 0 | STK24 = 0

Cc1c(Br)c(Br)c2c3c1nc(N1CCNCC1)n3CCC2 [SEL120-34A (monohydrochloride)] (2.5 µM)
inactive: RET 0 | [1] 0 | RIOK1 = 0 | RIPK1 = 0 | RIPK2 = 0 | ROR2 = 0 | RPS6KA1 = 0 | SPHK1 = 0 | SRC 0 | STK24 = 0

Cc1nc(NC(=O)N2CCC[C@H]2C(N)=O)sc1-c1csc(C(C)(C)C)n1 (10 µM)
inactive: RET 0 | [1] 0 | RIOK1 = 0 | RIPK1 = 0 | RIPK2 = 0 | ROR2 = 0 | RPS6KA1 = 0 | SPHK1 = 0 | SRC 0 | STK24 = 0

Reference: the supplement of paper PMC12823440, “Inhibitors supercharge kinase turnover through native proteolytic circuits” (Nature, 2025)
